Assay in all cases: EMSA
Data set [1] relates to TBP (TATA-binding protein) + TFIIB (SpIIB) + TFIIF + RNA polymerase II core enzyme. As to conditions: TFIIF 20 or 40 ng, RNAPII 100 ng; EMSA: 20 mM HEPES pH 7.9, 50 mM KCl, 5 mM MgCl2, 0.1 mM EDTA, 5% glycerol, 0.5% PEG 8000, 2 mM DTT, 0.1 mM PMSF, 50 ng acetylated BSA, 50 ng poly(dG-dC), 5-10 ng probe; recombinant protein; label: 5' 32P.
Data set [2] relates to TBP (TATA-binding protein) + TFIIB (SpIIB). As to conditions: 20 ng each factor; EMSA: 20 mM HEPES pH 7.9, 50 mM KCl, 5 mM MgCl2, 0.1 mM EDTA, 5% glycerol, 0.5% PEG 8000, 2 mM DTT, 0.1 mM PMSF, 50 ng acetylated BSA, 50 ng poly(dG-dC), 5-10 ng probe; recombinant protein; label: 5' 32P.
The subject of data set [3] is TBP (TATA-binding protein) + TFIIF + RNA polymerase II core enzyme. As to conditions: no TFIIB; EMSA: 20 mM HEPES pH 7.9, 50 mM KCl, 5 mM MgCl2, 0.1 mM EDTA, 5% glycerol, 0.5% PEG 8000, 2 mM DTT, 0.1 mM PMSF, 50 ng acetylated BSA, 50 ng poly(dG-dC), 5-10 ng probe; recombinant protein; label: 5' 32P.

The exact form of at least one protein or probe is not confirmed. For part of these data: A negative result means that nothing was seen under these conditions.

Regarding “GGCTATAAAAGGGGGTGGGGAGGACTTCCCCCCGATATTTTCCCCCACCCC (double strand) [Ad-MLP TATA box probe]”, the figures for the binding result in data set [1], in data set [2] and in data set [3] were “binds”, “binds” and “no binding”, respectively.

Source of the values: publication PMC9225179.
